Measurements: the supplement of paper PMC10849652
Some of the results follow.

Amino acid sequences for entries named in this document (tags omitted). A change or cut given only in a name is not applied to a line headed by its entry.
UniProt P51970, whole entry, looked up: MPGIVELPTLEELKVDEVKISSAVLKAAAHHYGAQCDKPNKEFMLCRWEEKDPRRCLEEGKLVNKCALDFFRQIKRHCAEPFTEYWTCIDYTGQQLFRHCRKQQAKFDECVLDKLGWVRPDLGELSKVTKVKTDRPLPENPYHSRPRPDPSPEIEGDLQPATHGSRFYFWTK
UniProt P51957: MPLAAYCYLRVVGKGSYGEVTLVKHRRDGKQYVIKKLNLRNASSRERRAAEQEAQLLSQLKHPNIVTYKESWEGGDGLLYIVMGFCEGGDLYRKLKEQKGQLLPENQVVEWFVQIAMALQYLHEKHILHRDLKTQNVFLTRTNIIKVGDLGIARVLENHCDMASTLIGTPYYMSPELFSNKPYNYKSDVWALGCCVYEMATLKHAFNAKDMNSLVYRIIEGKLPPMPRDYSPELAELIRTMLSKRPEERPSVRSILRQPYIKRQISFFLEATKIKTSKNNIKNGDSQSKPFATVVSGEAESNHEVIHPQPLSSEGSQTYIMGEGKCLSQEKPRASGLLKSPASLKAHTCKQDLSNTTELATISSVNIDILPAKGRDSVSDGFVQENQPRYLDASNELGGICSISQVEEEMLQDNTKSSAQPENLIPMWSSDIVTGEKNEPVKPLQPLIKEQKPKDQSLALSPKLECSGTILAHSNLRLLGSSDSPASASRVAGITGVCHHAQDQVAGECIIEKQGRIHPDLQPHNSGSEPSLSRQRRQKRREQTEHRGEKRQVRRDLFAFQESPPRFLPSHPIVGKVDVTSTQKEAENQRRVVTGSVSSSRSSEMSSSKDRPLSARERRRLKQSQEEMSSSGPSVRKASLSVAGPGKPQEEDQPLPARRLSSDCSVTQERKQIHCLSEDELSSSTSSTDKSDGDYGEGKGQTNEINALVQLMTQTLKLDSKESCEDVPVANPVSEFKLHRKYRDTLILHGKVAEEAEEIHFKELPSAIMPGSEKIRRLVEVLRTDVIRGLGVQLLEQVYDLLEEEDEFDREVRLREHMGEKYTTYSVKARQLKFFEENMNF
UniProt Q9BT67: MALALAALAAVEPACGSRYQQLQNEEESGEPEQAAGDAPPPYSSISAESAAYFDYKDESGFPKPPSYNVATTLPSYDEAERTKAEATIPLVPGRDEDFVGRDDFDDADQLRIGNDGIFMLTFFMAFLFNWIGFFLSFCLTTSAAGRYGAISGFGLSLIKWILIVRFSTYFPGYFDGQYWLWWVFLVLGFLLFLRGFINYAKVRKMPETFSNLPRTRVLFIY
UniProt Q9Y375: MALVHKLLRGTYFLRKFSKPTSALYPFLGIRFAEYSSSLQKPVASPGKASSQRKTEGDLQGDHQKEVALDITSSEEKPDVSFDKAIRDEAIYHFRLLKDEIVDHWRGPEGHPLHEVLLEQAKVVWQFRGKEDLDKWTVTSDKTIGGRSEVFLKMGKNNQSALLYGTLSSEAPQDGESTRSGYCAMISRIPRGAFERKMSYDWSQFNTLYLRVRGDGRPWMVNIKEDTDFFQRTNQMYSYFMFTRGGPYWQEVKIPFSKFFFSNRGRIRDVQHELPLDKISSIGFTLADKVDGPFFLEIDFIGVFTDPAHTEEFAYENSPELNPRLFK
UniProt O00483, whole entry, looked up: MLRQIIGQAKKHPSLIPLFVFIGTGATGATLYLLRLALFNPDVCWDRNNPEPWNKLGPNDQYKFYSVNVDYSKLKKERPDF
UniProt O15226: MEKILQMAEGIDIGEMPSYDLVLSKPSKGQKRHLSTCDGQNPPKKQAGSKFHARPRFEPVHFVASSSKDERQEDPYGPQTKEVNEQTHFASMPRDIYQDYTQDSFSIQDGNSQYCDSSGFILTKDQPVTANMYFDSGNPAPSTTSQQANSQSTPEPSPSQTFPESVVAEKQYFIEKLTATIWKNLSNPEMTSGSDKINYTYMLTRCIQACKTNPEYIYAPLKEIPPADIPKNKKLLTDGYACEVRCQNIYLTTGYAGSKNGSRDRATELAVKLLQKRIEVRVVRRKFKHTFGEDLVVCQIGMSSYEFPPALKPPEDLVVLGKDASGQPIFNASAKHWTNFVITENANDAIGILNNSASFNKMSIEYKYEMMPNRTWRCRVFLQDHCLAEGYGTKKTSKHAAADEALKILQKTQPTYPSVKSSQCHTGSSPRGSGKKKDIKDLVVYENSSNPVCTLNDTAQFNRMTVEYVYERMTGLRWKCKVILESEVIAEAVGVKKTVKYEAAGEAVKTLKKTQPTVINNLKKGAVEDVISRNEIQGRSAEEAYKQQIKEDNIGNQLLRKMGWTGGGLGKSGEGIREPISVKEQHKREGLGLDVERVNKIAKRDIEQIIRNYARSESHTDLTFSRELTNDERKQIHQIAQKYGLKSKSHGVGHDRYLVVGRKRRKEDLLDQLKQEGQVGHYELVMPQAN
UniProt P52849: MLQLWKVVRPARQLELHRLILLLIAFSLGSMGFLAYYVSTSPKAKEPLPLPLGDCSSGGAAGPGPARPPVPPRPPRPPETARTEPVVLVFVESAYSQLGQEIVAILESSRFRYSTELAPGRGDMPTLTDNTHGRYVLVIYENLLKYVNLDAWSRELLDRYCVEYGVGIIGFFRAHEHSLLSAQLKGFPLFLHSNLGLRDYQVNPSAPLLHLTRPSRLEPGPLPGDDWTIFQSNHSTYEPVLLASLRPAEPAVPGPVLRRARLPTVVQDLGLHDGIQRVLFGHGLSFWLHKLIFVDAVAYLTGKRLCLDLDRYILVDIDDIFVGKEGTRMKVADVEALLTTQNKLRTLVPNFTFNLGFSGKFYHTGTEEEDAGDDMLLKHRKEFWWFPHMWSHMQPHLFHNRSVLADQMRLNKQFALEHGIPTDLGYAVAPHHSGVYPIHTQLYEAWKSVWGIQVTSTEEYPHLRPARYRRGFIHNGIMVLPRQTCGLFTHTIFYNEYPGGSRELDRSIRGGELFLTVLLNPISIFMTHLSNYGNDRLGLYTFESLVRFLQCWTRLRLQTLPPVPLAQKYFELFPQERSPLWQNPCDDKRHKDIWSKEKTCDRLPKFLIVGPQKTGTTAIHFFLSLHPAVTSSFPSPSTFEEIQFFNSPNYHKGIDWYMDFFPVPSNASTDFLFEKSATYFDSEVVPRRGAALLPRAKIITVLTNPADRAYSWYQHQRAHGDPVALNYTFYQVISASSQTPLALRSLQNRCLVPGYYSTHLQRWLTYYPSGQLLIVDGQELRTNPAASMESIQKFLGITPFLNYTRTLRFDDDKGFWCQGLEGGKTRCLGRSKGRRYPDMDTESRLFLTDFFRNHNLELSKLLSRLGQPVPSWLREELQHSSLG
UniProt P56556, whole entry, looked up: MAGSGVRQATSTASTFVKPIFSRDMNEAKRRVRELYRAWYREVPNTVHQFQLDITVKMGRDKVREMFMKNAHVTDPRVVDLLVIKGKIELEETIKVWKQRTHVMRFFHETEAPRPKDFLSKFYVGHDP
UniProt P35240: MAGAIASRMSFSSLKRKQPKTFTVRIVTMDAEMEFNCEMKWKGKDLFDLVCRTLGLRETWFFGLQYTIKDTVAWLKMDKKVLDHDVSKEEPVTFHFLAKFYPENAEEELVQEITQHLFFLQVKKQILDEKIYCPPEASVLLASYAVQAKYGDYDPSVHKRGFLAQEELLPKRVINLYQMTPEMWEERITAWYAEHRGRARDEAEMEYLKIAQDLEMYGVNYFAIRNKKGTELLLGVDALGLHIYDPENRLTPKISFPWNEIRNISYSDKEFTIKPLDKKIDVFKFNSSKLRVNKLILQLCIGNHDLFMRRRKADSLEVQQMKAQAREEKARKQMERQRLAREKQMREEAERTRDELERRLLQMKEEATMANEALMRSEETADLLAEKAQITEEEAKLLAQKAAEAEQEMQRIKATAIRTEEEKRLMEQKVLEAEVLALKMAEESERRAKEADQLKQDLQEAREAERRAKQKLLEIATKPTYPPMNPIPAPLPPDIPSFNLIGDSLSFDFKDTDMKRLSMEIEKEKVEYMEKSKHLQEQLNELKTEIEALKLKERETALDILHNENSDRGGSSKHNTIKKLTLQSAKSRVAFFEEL
UniProt Q8NHV4, whole entry, looked up: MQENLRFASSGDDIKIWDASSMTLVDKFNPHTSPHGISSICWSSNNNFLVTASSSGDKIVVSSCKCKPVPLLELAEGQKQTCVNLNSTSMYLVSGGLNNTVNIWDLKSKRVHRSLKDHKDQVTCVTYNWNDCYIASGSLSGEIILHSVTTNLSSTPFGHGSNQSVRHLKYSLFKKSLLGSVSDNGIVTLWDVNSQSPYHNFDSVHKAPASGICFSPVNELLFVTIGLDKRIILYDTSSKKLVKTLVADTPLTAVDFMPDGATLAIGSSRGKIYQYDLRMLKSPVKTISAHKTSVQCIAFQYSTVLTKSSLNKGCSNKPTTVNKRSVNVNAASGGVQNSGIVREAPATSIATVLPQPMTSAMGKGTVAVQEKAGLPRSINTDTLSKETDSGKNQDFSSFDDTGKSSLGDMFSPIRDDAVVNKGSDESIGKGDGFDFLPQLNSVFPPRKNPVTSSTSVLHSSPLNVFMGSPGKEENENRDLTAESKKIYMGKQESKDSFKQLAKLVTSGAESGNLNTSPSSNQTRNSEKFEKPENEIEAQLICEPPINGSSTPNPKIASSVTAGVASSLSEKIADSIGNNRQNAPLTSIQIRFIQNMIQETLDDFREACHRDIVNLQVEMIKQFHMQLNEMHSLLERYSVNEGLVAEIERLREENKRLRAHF

Assays:
Experiment in all cases: log2 fold change, soluble protein after heating vs DMSO (PISA); higher = thermal stabilisation; K562 lysate, 10 uM; active = over 0.2 and 3.5 SD of the protein, either way, in both replicates (recomputed)
[1] = compound: NCC(=O)Nc1ccc(-n2nc(C(F)(F)F)cc2-c2ccc3c(ccc4ccccc43)c2)cc1
Summary of the method: (§1)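 The values are log-two fold changes in thermal stability compared with solvent controls and come from duplicates. They were obtained by TMTpro 16plex LC-MS/MS, with channel sums equalised, on the supernatant after 21,000xg for 90 min. That supernatant came from crude K562 extract at 1 mg/mL protein treated with 10 μM compound for 30 min, heated for 3 min across 48°C-58°C, pooled and brought to 0.5% NP-40 at 4°C.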

vorinostat = compound: O=C(CCCCCCC(=O)Nc1ccccc1)NO [vorinostat]
Summary of the method: as §1

silmitasertib = compound: O=C(O)c1ccc2c(c1)nc(Nc1cccc(Cl)c1)c1ccncc12 [silmitasertib]
Summary of the method: as §1

[2] = compound: O=C1NC(=O)C(c2cnc3ccccn23)=C1c1cn2c3c(cc(F)cc13)CN(C(=O)N1CCCCC1)CC2
Summary of the method: as §1

entospletinib = compound: c1cn2cc(-c3ccc4cn[nH]c4c3)nc(Nc3ccc(N4CCOCC4)cc3)c2n1 [entospletinib]
Summary of the method: as §1

Measured: log2 fold change

NDUFA8 (UniProt P51970)
inactive: [1] -0.009 | vorinostat 0.112 | silmitasertib -0.006 | [2] -0.026 | entospletinib -0.122

NEK4 (UniProt P51957)
inactive: [1] -0.038

NDFIP1 (UniProt Q9BT67)
inactive: [1] -0.002 | vorinostat -0.061 | silmitasertib -0.011 | [2] 0.08

NDUFAF1 (UniProt Q9Y375)
inactive: [1] -0.016 | vorinostat 0.158 | silmitasertib 0.003 | [2] 0 | entospletinib 0.02

NDUFA4 (UniProt O00483)
inactive: [1] -0.041 | vorinostat -0.017 | silmitasertib -0.004 | [2] 0.01 | entospletinib -0.029

NKRF isoform 2 (UniProt O15226)
inactive: [1] 0.064 | vorinostat 0.033 | silmitasertib 0.061 | [2] 0.053 | entospletinib -0.01

NDST2 (UniProt P52849)
inactive: [1] 0.056 | vorinostat 0.131 | silmitasertib 0.097 | [2] -0.056 | entospletinib 0.13

NDUFA6 (UniProt P56556)
inactive: [1] -0.054 | vorinostat 0.042 | silmitasertib 0.018 | [2] 0.012 | entospletinib -0.039

NF2 (UniProt P35240)
inactive: [1] 0.022 | vorinostat -0.039 | silmitasertib -0.039 | [2] 0.015 | entospletinib -0.093

Fetched one by one from the entries so far (2):
NDST2 (UniProt P52849)
inactive: [1] 0.056 | vorinostat 0.131 | silmitasertib 0.097 | [2] -0.056 | entospletinib 0.13

NDUFA4 (UniProt O00483)
inactive: [1] -0.041 | vorinostat -0.017 | silmitasertib -0.004 | [2] 0.01 | entospletinib -0.029

More entries:

NEDD1 isoform 3 (UniProt Q8NHV4)
inactive: [1] 0.003 | vorinostat -0.074 | silmitasertib -0.032 | [2] -0.026 | entospletinib 0.026
